From patent EP4537907A1
No constants are given. Whether binding was seen depends on the method and setting. Some entries that bind do so weakly or less than the wild type.

The chains behind the UniProt entries cited, without tags or fusion partners. Residues count along the entry.
UniProt Q91V98, residues 18-695: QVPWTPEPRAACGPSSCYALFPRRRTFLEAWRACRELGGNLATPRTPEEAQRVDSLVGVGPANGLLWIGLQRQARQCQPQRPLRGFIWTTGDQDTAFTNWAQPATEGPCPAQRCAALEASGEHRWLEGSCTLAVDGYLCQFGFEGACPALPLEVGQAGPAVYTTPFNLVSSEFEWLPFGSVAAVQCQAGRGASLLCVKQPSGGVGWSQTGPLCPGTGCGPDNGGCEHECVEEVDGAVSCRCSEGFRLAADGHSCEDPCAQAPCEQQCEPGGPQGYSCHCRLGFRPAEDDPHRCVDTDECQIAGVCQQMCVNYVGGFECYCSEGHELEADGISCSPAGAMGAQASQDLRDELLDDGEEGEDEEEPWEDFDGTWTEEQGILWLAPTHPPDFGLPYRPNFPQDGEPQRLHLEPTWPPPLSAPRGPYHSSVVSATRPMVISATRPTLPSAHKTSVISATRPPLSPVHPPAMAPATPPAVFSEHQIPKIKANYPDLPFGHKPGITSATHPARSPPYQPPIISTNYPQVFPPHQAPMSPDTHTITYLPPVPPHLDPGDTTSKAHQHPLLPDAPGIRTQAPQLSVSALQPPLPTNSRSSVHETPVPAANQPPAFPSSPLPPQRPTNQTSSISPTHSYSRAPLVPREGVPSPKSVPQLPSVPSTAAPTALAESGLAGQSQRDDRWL

Target: recombinant mouse CD248 (internally produced) (mouse) (UniProt Q91V98)
Assay: BLI (Octet platform, BLItz System), mAb captured via Fc on AHC biosensor

B1: YU1023-A02 (antibody, human IgG4, V domains shown)
VH: QVQLVESGPGLVKPSQTLSLTCTVSGGSISSGGYYWSWIRQHPGKGLEWIGYIYYSGSTYYNPSLKSRVTISVDTSKNQFSLKLSSVTAADTAVYYCARVRGRSATYFDYWGQGTTVTVSS
VL: QSVLTQPPSVSGAPGQRVTISCTGSSSNIGAGYDVRWYQQLPGTAPKLLIYANNNRPSGVPDRFSGSKSGTSASLAITGLQTEDEADYYCQSYDISLSGSLFGGGTKLTVL
binding: binds
